One compound from patent US5240962A, “Antiobesity and fat-reducing agents” (priority 1991, dated 1993) can be followed below.

The nature of this data set: Effect on fat content of broiler chickens. It is filed as in vivo. The settings on record: 27 days, broilers. How it is done: Four groups of 5 seven-day old broiler having an average weight of 129 g were used. A test diet was available ad libitum to all birds during the test period (27 days).
Control birds received no test compound. […] At the conclusion of the test, all birds were sacrificed and processed to determine fat weights and body weights. Feed intake was also recorded.

For `CCCCCCCCCCCCCCCc1cccc(O)c1C(=O)O` [Compound 1, 6 - Pentadecylsalicylic Acid], the “Feed Consumed” value by setting is: (0.1% in diet) 2000 g; (0.2% in diet) 2250 g.
